Experimental data taken from paper PMC5680235, “Identification of a peptide recognizing cerebrovascular changes in mouse models of Alzheimer’s disease” (Nature Communications, 2017).
These are yes or no findings as the source states them, for the method shown.

Target: T1, full-length recombinant human CTGF/CCN2 (human, UniProt P29279 27-349)
T1 construct: connective tissue growth factor (CTGF/CCN2), human, full-length recombinant; also called connective tissue growth factor; recombinant CTGF; source: bought: R&D systems (cat#9190-CC)
T1 sequence (looked up): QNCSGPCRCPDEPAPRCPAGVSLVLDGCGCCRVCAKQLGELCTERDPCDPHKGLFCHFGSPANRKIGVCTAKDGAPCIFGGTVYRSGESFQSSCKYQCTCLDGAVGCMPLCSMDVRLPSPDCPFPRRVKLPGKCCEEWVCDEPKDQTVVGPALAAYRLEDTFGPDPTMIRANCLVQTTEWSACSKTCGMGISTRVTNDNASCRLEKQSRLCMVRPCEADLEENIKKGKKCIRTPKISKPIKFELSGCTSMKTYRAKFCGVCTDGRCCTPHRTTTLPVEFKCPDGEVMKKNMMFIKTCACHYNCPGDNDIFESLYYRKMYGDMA
Test: ELISA; plate wells coated with recombinant human CTGF; FAM-peptide in 0.05% Casein/PBST overnight at 4 °C, two peptide concentrations; alone or with excess unlabeled DAG (0.6 mM); detected with anti-FITC HRP antibody, absorbance at 450 nm; both purified

**Q.** Which binding does the source give for CRKQGEAKC (5(6)-carboxyfluorescein (FAM) at the N-terminus) [FAM-labeled control peptide (…)] here?
**A.** Its binding is “no binding”.
